Results of single-concentration screens

Chains of the proteins cited; added tags and fusions are not shown. Residues count along the entry.
UniProt P9WNZ1, whole entry: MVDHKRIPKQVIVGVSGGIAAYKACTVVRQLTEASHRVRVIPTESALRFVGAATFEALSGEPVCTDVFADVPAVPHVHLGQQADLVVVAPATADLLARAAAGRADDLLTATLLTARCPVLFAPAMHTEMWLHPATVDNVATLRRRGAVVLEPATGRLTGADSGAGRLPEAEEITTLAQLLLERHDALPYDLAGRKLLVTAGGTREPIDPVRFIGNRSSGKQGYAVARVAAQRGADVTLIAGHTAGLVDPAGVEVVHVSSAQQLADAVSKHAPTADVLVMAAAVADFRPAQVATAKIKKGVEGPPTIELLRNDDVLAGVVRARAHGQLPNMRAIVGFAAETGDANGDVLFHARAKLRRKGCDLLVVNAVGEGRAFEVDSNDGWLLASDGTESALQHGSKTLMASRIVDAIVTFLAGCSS
UniProt P9WFT3, whole entry: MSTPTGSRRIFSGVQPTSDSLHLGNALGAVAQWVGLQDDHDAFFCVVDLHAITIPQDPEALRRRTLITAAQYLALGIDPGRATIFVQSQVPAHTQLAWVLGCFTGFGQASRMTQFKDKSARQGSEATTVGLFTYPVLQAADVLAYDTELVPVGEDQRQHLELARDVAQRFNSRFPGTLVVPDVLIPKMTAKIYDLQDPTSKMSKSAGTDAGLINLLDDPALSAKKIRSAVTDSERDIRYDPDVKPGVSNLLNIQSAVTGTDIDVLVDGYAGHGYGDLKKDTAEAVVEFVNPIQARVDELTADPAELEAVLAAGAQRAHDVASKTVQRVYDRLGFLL
UniProt Q4DA54, 1-478: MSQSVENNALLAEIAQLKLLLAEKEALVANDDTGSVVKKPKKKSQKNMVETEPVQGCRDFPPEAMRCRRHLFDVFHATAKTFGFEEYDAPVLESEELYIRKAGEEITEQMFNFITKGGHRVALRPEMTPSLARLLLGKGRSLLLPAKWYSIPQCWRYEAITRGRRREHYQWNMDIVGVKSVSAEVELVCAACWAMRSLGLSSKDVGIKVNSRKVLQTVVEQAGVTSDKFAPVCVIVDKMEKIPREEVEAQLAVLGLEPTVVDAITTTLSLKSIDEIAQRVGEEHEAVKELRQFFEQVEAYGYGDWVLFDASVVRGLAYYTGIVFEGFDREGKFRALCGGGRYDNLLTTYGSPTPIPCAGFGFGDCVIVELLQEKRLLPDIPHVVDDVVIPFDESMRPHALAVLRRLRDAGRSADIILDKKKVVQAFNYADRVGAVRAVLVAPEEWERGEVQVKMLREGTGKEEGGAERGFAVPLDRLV
UniProt Q8IDJ8, 1-583: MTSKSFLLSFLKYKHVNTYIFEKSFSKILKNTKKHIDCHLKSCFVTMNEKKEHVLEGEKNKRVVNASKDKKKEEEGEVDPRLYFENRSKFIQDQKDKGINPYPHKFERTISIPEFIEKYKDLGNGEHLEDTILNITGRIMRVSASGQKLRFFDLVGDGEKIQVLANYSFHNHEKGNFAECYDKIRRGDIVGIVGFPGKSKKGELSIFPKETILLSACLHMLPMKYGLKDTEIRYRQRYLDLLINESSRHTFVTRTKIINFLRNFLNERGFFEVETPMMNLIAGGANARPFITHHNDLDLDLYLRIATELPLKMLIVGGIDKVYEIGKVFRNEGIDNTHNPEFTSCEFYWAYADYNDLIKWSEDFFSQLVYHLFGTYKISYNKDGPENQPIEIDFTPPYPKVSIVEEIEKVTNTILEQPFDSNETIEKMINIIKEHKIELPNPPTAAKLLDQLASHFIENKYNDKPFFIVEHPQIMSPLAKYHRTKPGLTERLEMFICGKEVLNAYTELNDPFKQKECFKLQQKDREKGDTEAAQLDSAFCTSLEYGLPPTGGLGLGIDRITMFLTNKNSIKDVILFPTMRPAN

Each number is a percent effect as filed.
The record does not define 0% and 100%; most values in the screen are far below 50% and negative numbers occur (in some assays of this library far below -100).
This is an unselected part of the compounds tested.

A: 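Enzyme assay of CoaBC with a phosphate dye (Biomol Green) read at 650 nm. Target: Coenzyme A biosynthesis protein CoaBC, Mycobacterium tuberculosis (UniProt P9WNZ1). Tested at 30 µM. Higher reads as stronger inhibition, judged from the few compounds that gave an IC50. Most strong results did not repeat in a second test. Size under these conditions: about 67,000 compounds, about 40 of them at 50% or above in at least one test.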
B: 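Tryptophan-tRNA ligase, Mycobacterium tuberculosis (UniProt P9WFT3). Enzyme assay of tryptophanyl-tRNA synthetase; the read-out is not stated. Concentration: 10 µM. Direction is not recorded; retested compounds ran higher, which suggests that high means inhibition. Of about 65,000 compounds tested this way, about 64 (0.098%) reached 50% or more in at least one test.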
C: 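Histidine-tRNA ligase, Trypanosoma cruzi CL Brener (UniProt Q4DA54). Enzyme assay of histidyl-tRNA synthetase; the read-out is not stated. Compounds at 30 µM. The record gives no direction; compounds that gave an IC50 in retests scored well above the rest, so higher reads as stronger inhibition. Of about 69,000 compounds tested this way, about 31 (0.045%) reached 50% or more in at least one test.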
D: 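Enzyme assay of the cytosolic lysyl-tRNA synthetase in 384-well plates, read by luminescence. Target: Lysine-tRNA ligase, Plasmodium falciparum 3D7 (UniProt Q8IDJ8). Tested at 30 µM. Higher reads as stronger inhibition, judged from the few compounds that gave an IC50. Of about 69,000 compounds tested this way, about 49 (0.071%) reached 50% or more in at least one test.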

* CNC(=O)[C@@]12CCO[C@@H]1CCN(S(=O)(=O)c1cc(C)cc(C)c1)C2 : A: 2.101%; B: -7.354%; C: 4.082%; D: -2.621%
* Cc1ccc(Cl)c(NC(=O)c2cccc(CN3CC[C@H](O)C3)c2)c1 : A: -2.112%; B: -12.88%; C: 1.932%; D: 5.115%
* COc1nccnc1N1CCC2(CC1)C(=O)N(C)c1ccccc12 : A: 15.53%; B: -5.176%; C: 2.762%; D: -0.4555%
* CC(C)CN1CCN(Cc2nc3c(s2)CCCC3)[C@H]2CS(=O)(=O)C[C@H]21 : A: 10.98%; B: 0.819%; C: -1.657%; D: -1.642%
* Cc1ccc(C)c(NC(=O)Cc2c(C)nc3c(c2C)c(=O)[nH]n3C)c1 : A: -2.622%; B: -1.564%; C: 6.122%; D: 1.344%
* COc1nc2c(cc1C(=O)NCCCc1nnc(N)s1)CCC2 : A: 6.612%; B: -2.998%; C: -2.717%; D: 2.41%
* O=C(NCCc1ccn(-c2ccc(F)cc2)n1)C1CCCOC1 (stereo unspecified) : A: 3.423%; B: -0.5482%; C: -2.062%; D: 0.8596%
* CC(C)N1CCC(C(=O)N(C)CC(=O)c2ccc(O)cc2)CC1 : A: -0.9828%; B: 1.867%; C: 3.529%; D: 2.059%
* O=C(CCC(=O)N1CCCC1c1cccs1)N1CCc2sccc2C1 (stereo unspecified) : A: 1.542%; B: 3.991%; C: 2.256%; D: 4.262%
* COc1cc(CNC(C)c2cccc(Cl)c2)cc(OC)c1OC (stereo unspecified) : A: -9.504%; B: 7.893%; C: 10%; D: 11.55%
* Fc1cccc2c1CCC2NCc1cnc(N2CCOCC2)nc1 (stereo unspecified) : A: 16.04%; B: 0.5435%; C: 6.186%; D: 6.215%
* O=S(=O)(CCO)CCc1ccccc1Cl : A: 8.073%; B: -1.375%; C: 8.808%; D: 1.022%
* COc1cc(Cl)c(NC(=O)NCCn2cccc2)cc1OC : A: -1.373%; B: 1.31%; C: 2.762%; D: -1.332%
* Cc1ccc(C(=O)N2CCC3(CC(N(C)c4ccncn4)C3)C2)cn1 (stereo unspecified) : A: 0%; C: -2.198%; D: 0.517%
* COCCN1CCCC1c1cccc2c1OCCO2 (stereo unspecified) : A: -4.132%; B: -3.838%; C: 6.667%; D: 2.379%
* N#Cc1cccc(N2CCCC(CO)(Cc3ccccc3F)C2)n1 (stereo unspecified) : A: 4.883%; B: 6.449%; C: 0.8%; D: -5.522%
* CS(=O)(=O)N[C@@H]1CN(C(=O)c2cnccn2)[C@@H]2CCCO[C@@H]21 : A: 3.043%; B: -1.146%; C: 5.882%; D: 2.662%
* COc1ccc(CNC(=O)CNc2cc3c(cc2Cl)OCCO3)cc1 : A: -0.9862%; B: 0.831%; C: 2.116%; D: 2.913%
* O=C(Nc1ccccc1N1CCOC1=O)N1CCc2sccc2C1 : A: 1.648%; B: 3.524%; C: 3.017%; D: 4.782%
* CCCN1CCCC2(CCN(Cc3cncn3C3CCCC3)C2)C1=O (stereo unspecified) : A: 4.845%; B: -0.4341%; C: 3.865%; D: 3.938%
* O=C(NCCCn1cccn1)c1csc2c1CCCC2 : A: 5.992%; B: -7.282%; C: 9.524%; D: 7.9%
* CC(=O)N1CCN(S(=O)(=O)c2ccc(C)c(F)c2)CC1 : A: 10.12%; B: -6.038%; C: 0%; D: 3.865%
* COc1ccc2c(c1)OCC(CNC(=O)NC(C)(C)C)C2 (stereo unspecified) : A: -1.277%; B: 3.708%; C: -6.061%; D: -1.799%
* CNC(=O)CS(=O)(=O)Cc1cc(Cl)c2c(c1)OCCCO2 : A: -2.828%; B: 0.236%; C: 2.256%; D: 10.82%
* Cc1nc(N2CCOCC2)nc(C)c1NC(=O)c1ccco1 : A: -9.091%; B: -6.155%; C: -2.062%; D: -0.3282%
* CCNC(c1ccc(F)cc1)c1cccnc1 (stereo unspecified) : A: 1.392%; B: -1.224%; C: 0%; D: 0.6472%
* Cc1ccoc1C(=O)N1CCOCC2(CCN(c3ncccn3)C2)C1 (stereo unspecified) : A: -1.762%; B: 2.515%; C: 1.695%; D: 1.545%
* N#Cc1cnc(NCc2cccc(C(=O)N3CCCC3)c2)c(Cl)c1 : A: -0.2404%; B: -1.598%; C: 3.797%; D: -1.117%

Some entries from above, unchanged:

SMILES,A,B,C,D
N#Cc1cccc(N2CCCC(CO)(Cc3ccccc3F)C2)n1 (stereo unspecified),4.883%,6.449%,0.8%,-5.522%
COc1ccc(CNC(=O)CNc2cc3c(cc2Cl)OCCO3)cc1,-0.9862%,0.831%,2.116%,2.913%

From ChEMBL document CHEMBL3988442, “University of Dundee, Small-Polar-MMV Screening Library” (2021).